One substance from article PMC3912051 can be followed below.

Sequences of proteins named here, by UniProt entry; tags and fusion partners are left off. A change or cut given only in a name is not applied to a line headed by its entry.
UniProt P21506: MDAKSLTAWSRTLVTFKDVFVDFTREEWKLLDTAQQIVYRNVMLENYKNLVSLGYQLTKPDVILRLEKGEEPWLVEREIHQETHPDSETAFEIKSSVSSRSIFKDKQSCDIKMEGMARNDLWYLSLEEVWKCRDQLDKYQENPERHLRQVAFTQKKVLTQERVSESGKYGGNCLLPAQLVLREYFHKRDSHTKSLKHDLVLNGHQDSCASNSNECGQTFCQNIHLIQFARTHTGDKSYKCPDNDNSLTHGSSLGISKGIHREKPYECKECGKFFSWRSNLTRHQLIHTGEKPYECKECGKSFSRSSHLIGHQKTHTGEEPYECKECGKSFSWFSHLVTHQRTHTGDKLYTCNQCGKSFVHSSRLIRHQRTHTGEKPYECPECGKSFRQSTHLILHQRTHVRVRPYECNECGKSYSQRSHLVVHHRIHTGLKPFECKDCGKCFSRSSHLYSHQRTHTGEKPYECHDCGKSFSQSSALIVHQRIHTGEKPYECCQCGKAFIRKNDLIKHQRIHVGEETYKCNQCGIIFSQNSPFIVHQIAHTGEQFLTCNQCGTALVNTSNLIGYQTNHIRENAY
UniProt Q13263: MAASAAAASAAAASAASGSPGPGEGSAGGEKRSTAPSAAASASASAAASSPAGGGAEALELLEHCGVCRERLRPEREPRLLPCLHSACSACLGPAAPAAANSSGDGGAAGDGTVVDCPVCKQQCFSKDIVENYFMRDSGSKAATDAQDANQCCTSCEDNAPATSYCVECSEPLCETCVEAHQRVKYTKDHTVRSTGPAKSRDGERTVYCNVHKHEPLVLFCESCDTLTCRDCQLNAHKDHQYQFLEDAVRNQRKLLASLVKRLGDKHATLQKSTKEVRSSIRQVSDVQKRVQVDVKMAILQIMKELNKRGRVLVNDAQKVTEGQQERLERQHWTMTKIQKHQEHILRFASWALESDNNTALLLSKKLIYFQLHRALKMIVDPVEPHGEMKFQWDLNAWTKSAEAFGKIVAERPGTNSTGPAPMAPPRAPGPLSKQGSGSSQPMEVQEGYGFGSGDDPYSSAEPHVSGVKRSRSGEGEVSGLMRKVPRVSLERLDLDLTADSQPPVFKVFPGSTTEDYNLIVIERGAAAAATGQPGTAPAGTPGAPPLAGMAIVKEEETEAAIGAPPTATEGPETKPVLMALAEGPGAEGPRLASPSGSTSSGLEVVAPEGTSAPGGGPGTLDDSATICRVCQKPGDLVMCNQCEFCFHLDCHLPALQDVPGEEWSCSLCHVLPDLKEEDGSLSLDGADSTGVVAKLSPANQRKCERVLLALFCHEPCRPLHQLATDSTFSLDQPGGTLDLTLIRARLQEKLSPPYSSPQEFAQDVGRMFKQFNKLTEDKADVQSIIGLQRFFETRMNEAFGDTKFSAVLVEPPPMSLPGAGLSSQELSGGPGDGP

Experiment [1] addresses GST-ZNF10-KRAB-A (KRAB-A subdomain of human ZNF10/Kox1 fused to glutathione S-transferase) (human) (UniProt P21506). The experiment is described as follows: co-IP; GST-KRAB fusions expressed in HeLa cells; lysis in TST buffer (20 mM TRIS/HCl pH 7.5, 60 mM KCl, 15 mM NaCl, 10 mM MgCl2, 1 mM CaCl2, 250 mM sucrose, 0.5% Triton X-100); 1.25 mg total protein; IP with rabbit anti-GST and protein-G agarose; Western blot for endogenous TRIM28.

Experiment [2] has as its target GST-ZNF10-KRAB-AB (KRAB-AB domain of human ZNF10/Kox1 fused to glutathione S-transferase) (human) (UniProt P21506). Described as above.

Results are given in words; binding and its absence hold for the method and conditions named. Binding seen in cells or lysates may run through a third protein. For some assays here: A result given as binding can be weak or reduced; the word gives no strength.

As to “TRIM28 (endogenous human TRIM28 protein) (from UniProt Q13263 1-835)”, the binding entry in experiment [1] is given as “no binding”; in experiment [2] it was “binds”.
